Experiment [1] has as its target oxytocin receptor (rat (endogenous in striatal gliosomes and hemibrain slices)) (UniProt P70536). The experiment can be described thus: co-IP; Triton X-100-soluble membrane proteins (300 µg) of freshly isolated rat striatal gliosomes; precleared, incubated overnight at 4 °C with 1 µg of anti-OTR, anti-A2A or anti-D2 antibody, protein G sepharose; 50 mM sodium borate, 0.1 mM EDTA, pH 7.5, 0.2% Triton-X100; Western blot. (In general: A western blot detects proteins with antibodies after separation by electrophoresis.)

Sequences of proteins named here, by UniProt entry; tags and fusion partners are left off. A change or cut given only in a name is not applied to a line headed by its entry.
UniProt P70536: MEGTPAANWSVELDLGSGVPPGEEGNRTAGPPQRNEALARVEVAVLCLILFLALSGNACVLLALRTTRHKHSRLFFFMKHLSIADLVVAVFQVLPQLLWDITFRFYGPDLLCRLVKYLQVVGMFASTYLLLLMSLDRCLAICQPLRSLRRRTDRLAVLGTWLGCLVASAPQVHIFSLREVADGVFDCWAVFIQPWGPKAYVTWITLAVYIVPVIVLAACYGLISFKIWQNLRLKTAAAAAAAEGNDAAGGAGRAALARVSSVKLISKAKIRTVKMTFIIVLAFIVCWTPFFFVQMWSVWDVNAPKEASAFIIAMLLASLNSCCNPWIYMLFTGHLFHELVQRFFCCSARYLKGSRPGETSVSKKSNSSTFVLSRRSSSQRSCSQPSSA
UniProt P61169: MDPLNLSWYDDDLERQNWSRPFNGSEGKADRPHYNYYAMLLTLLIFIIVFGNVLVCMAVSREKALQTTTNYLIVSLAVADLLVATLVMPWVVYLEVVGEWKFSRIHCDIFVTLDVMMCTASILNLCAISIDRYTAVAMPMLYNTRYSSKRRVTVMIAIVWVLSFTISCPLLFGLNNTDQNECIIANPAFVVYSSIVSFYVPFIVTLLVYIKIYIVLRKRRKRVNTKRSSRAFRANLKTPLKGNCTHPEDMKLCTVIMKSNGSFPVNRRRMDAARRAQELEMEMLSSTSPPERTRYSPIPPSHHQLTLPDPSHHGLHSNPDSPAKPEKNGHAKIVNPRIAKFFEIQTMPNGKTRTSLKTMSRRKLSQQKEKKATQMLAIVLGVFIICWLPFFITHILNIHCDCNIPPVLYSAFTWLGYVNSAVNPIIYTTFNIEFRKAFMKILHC
UniProt P30543: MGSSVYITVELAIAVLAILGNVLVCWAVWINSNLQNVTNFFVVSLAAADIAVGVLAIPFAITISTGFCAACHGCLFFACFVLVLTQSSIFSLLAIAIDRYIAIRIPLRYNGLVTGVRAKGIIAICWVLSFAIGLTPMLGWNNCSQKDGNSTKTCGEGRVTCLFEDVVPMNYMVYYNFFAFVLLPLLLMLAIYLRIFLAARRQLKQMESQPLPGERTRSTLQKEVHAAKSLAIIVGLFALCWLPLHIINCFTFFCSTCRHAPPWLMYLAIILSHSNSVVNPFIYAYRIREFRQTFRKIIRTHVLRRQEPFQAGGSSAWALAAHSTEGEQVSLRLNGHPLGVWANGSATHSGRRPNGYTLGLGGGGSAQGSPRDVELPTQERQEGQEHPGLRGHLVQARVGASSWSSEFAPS

The target of experiment [2] is dopamine D2 receptor (rat (endogenous in striatal gliosomes and hemibrain slices)) (UniProt P61169). The experiment is described as above.
Experiment [3] has as its target adenosine A2A receptor (rat (endogenous in striatal gliosomes)) (UniProt P30543). Described as above.
Experiment [4] has as its target oxytocin receptor (rat (endogenous in striatal gliosomes and hemibrain slices)) (UniProt P70536). The experiment can be described thus: proximity ligation; in situ PLA (Duolink) on rat hemibrain slices with anti-D2 PLUS and anti-OTR MINUS conjugated primary antibodies, overnight at 4 °C; confocal microscopy; GFAP- and ezrin-positive striatal astrocytes.

These are yes or no findings as the source states them, for the method shown. In cells and extracts the contact can be indirect. Some binding calls cover weakened binding; strength is not graded here.

For “adenosine A2A receptor (from UniProt P30543 1-410)”, the binding result in experiment [1] and in experiment [2] was “binds” in each case.
Turning to “dopamine D2 receptor (from UniProt P61169 1-444)”, the binding result in experiment [1], in experiment [3] and in experiment [4] was “binds” each time.
Turning to “oxytocin receptor (from UniProt P70536 1-388)”, the binding result in experiment [2] and in experiment [3] was “binds” throughout.

B1: flotillin-1 (protein, UniProt Q9Z1E1 1-428)
chain: MFFTCGPNEAMVVSGFCRSPPVMVAGGRVFVLPCIQQIQRISLNTLTLNVKSEKVYTRHGVPISVTGIAQVKIQGQNKEMLAAACQMFLGKTEAEIAHIALETLEGHQRAIMAHMTVEEIYKDRQKFSEQVFKVASSDLVNMGISVVSYTLKDIHDDQDYLHSLGKARTAQVQKDARIGEAEAKRDAGIREAKAKQEKVSAQCLSEIEMAKAQRDYELKKATYDIEVNTRRAQADLAYQLQVAKTKQQIEEQRVQVQVVERAQQVAVQEQEIARREKELEARVRKPAEAERYRLERLAEAEKAQLIMQAEAEAESVRMRGEAEAFAVGARARAEAEQMAKKAEAFQMYQEAAQLDMLLEKLPQVAEEISGPLTSANKITLVSSGSGTMGAAKVTGEVLDILSRLPESVERLTGVSISQVNHNKPLRTA
For the molecule B1, the binding result in experiment [1], in experiment [2] and in experiment [3] was “binds” throughout.

The record behind these values is paper PMC11354247.
